No constants are given. Whether binding was seen depends on the method and setting. Binding seen in cells or lysates may run through a third protein. Some results given as binding are weak or reduced against the parent protein; the word gives no strength.
How the values were obtained:
[1] = biological target: GST-CD36 of the GST pull-down for STAT3, pSTAT3, ERK1/2 and pERK1/2 (Fig. 4C) (human) (UniProt P16671); assay: pull-down; GST pull-down with CD36 in MCF-7 and MDA-MB-468 cells, blotted for STAT3, pSTAT3 (Y705), ERK1/2 and pERK1/2 (Thr202/Tyr204); bacterial or mammalian GST-CD36 not stated
[2] = biological target: GST-tagged CD36 (full human CD36 cDNA in pGEX-4T-3) (human) (UniProt P16671); assay: pull-down; GST-tagged CD36 purified from BL21 mixed with proteins from control, CD36-expressing and CD36-knockout MCF-7 and MDA-MB-468 cells (with/without adipocyte co-culture), 4 °C for 4 h with rotating; eluate blotted with anti-FABP4 antibody; only the target purified
[3] = biological target: CD36 in MCF-7 and MDA-MB-468 cell lysate (human) (UniProt P16671); assay: co-IP; CD36 antibody (2 ug) coupled to AminoLink Plus resin; pre-cleared lysate (500 ug total protein) of MCF-7 and MDA-MB-468 cells, overnight at 4 °C; non-denaturing and denaturing immunoprecipitation; western blot for FABP4

Sequences of proteins named here, by UniProt entry; tags and fusion partners are left off.
UniProt P16671: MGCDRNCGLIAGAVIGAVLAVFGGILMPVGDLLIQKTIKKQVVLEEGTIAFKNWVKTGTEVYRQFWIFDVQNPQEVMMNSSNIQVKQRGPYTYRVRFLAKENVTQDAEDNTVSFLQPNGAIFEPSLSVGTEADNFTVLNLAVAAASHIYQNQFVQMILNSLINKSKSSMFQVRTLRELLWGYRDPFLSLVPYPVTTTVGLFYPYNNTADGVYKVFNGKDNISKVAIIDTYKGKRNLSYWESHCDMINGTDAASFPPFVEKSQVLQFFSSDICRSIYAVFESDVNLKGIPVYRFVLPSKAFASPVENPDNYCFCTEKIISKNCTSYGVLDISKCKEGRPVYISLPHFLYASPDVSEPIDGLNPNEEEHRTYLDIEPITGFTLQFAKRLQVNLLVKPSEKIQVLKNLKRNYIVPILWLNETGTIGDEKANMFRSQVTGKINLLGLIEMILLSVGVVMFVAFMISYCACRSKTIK
UniProt P15090: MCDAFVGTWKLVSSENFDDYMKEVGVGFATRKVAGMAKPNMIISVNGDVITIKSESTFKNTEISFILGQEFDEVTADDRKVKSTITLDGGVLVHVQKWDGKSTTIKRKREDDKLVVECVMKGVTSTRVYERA
UniProt P27361: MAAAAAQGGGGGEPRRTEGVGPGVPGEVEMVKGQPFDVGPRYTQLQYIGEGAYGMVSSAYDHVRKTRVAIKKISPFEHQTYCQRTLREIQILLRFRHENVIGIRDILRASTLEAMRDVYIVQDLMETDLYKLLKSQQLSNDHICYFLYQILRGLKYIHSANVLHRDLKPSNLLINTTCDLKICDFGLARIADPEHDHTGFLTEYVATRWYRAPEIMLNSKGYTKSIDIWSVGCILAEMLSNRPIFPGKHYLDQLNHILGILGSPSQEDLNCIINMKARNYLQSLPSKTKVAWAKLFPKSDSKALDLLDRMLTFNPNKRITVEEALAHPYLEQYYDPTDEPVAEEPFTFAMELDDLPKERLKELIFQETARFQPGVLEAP
UniProt P40763: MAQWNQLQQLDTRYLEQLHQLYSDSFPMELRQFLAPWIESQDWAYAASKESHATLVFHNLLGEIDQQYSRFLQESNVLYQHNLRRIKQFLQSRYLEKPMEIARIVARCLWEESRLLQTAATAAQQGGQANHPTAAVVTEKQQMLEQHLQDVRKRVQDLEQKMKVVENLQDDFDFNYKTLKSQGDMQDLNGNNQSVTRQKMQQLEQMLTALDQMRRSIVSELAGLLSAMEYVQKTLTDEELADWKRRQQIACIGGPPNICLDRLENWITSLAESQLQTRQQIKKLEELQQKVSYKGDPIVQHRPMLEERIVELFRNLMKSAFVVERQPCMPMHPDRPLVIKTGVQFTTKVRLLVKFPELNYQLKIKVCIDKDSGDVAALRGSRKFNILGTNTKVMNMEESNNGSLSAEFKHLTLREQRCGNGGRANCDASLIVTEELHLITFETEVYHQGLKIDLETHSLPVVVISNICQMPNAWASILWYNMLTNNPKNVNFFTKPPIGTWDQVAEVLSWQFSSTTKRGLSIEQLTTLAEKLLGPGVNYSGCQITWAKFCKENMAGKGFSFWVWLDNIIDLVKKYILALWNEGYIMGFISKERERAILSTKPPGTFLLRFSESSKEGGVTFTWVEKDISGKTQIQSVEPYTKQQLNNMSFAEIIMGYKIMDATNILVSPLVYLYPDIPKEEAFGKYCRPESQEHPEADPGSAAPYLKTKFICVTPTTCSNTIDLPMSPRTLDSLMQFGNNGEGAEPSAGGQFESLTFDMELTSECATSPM

| binding [1] | binding [2] | binding [3] | Substance |
| --- | --- | --- | --- |
|  | binds | binds | FABP4 (from UniProt P15090 1-132) |
| no binding |  |  | pERK1 (of pERK1/2 (Thr202/Tyr204)) (from UniProt P27361 1-379) |

Continued, substance first:

| Substance | binding [1] | binding [2] | binding [3] |
| --- | --- | --- | --- |
| ERK1 (of ERK1/2) (from UniProt P27361 1-379) | no binding |  |  |
| STAT3 (from UniProt P40763 1-770) | binds |  |  |
| pSTAT3 (Y705) (from UniProt P40763 1-770) | binds |  |  |
